US20200003760A1, “IN-VITRO METHODS FOR CLASSIFYING DRUGS ACCORDING TO THEIR POTENTIAL TO CAUSE LIVER CELL INJURY” (Board of Trustees of Michigan State University, priority 2018, published 2020)
Like-named read-outs stand apart in the source and are kept apart here.

Test system: HepG2 cells
Assay: Drug/cytokine-induced cytotoxicity (% LDH release) concentration-response in HepG2 cells
Assay type: cell-based, human
Conditions: for Slops: 0 = no significant increase, drug alone (VEH); for Slope IFN: with IFN 10 ng/ml; for Slope TNF: with TNF 10 ng/ml
[1] = categorical variable for quotients, drug/TNF versus drug/VEH
[2] = slope of four-parameter logistic fit, negative = increasing
[3] = slope of four-parameter logistic fit, negative = increasing, with TNF and IFN

SMILES | Q [1] | Slops [2] | Slope IFN [2] | Slope TNF [2] | Slope TNF/IFN [3] | Q | Slope TNF/IFN
CC(=O)Oc1ccccc1C(=O)O [Aspirin] | 0 (0 if Delta VEH and/or Delta cytokine is <10% LDH) | 0 | 3.013 | 0 | 0 | – | –
CC[C@H]1OC(=O)[C@H](C)[C@@H](O[C@H]2C[C@@](C)(OC)[C@@H](O)[C@H](C)O2)[C@H](C)[C@@H](O[C@@H]2O[C@H](C)C[C@H](N(C)C)[C@H]2O)[C@](C)(O)C[C@@H](C)CN(C)[C@H](C)[C@@H](O)[C@]1(C)O [Azithromycin] | 0 (0 if Delta VEH and/or Delta cytokine is <10% LDH) | 0 | 0 | 0 | −1.8 | – | –
Nc1c(CC(=O)O)cccc1C(=O)c1ccc(Br)cc1 [Bromfenac] | 0 (0 if Delta VEH and/or Delta cytokine is <10% LDH) | 0 | −19.7 | −3.4 | −4.0 | – | –
O=C1CC2(CCCC2)CC(=O)N1CCCCN1CCN(c2ncccn2)CC1 [Buspirone] | 0 (0 if Delta VEH and/or Delta cytokine is <10% LDH) | 0 | 0 | 0 | – | – | –
CN(C)CCCN1c2ccccc2Sc2ccc(Cl)cc21 [Chlorpromazine] | 1 (1 if both Delta VEH and Delta cytokine are ≥10% LDH) | −10.1 | −12.6 | −7.6 | −5.3 | – | –
O=C(O)[C@H]1/C(=C/CO)O[C@@H]2CC(=O)N21 [Clavulanate] | 0 (0 if Delta VEH and/or Delta cytokine is <10% LDH) | 0 | 0 | −8.2 | −16.1 | – | –
O=C(O)Cc1ccccc1Nc1c(Cl)cccc1Cl [Diclofenac] | – | 0 | 0 | −12.5 | – | 0 (key: 0 if Delta VEH and/or Delta cytokine is <10% LDH; 1 if both Delta VEH and Delta cytokine are ≥10% LDH) | –
COc1cccc2c1C(=O)c1c(O)c3c(c(O)c1C2=O)C[C@@](O)(C(=O)CO)C[C@@H]3O[C@H]1C[C@H](N)[C@H](O)[C@H](C)O1 [Doxorubicin] | 0 (0 if Delta VEH and/or Delta cytokine is <10% LDH) | −2.0 | −1.4 | −1.5 | – | – | –
Cc1onc(-c2c(F)cccc2Cl)c1C(=O)N[C@@H]1C(=O)N2[C@@H]1SC(C)(C)[C@@H]2C(=O)O [Flucloxacillin] | 1 (1 if both Delta VEH and Delta cytokine are ≥10% LDH) | 0 | −5.0 | 0 | 0 | – | –
CC(C)Cc1ccc(C(C)C(=O)O)cc1 (stereo not shown) [Ibuprofen] | 1 (1 if both Delta VEH and Delta cytokine are ≥10% LDH) | −6.1 | −5.5 | −2.2 | – | – | –
CC(=O)[C@]1(O)Cc2c(O)c3c(c(O)c2[C@@H](O[C@H]2C[C@H](N)[C@H](O)[C@H](C)O2)C1)C(=O)c1ccccc1C3=O [Idarubicin] | 0 (0 if Delta VEH and/or Delta cytokine is <10% LDH) | 0 | 0 | 0 | 0 | – | –
NNC(=O)c1ccncc1 [Isoniazid] | 0 (0 if Delta VEH and/or Delta cytokine is <10% LDH) | −32.3 | −43.4 | −3.1 | −4.7 | – | –
COc1ccc2cc([C@H](C)C(=O)O)ccc2c1 [Naproxen] | 0 (0 if Delta VEH and/or Delta cytokine is <10% LDH) | −7.3 | −8.3 | −6.6 | – | – | –
CS(=O)(=O)Nc1ccc([N+](=O)[O-])cc1Oc1ccccc1 [Nimesulide] | – | 0 | 0 | −14.9 | – | 0 (key: 0 if Delta VEH and/or Delta cytokine is <10% LDH; 1 if both Delta VEH and Delta cytokine are ≥10% LDH) | −15.2
CC(CN1c2ccccc2Sc2ccccc21)N(C)C (stereo not shown) [Promethazine] | 0 (0 if Delta VEH and/or Delta cytokine is <10% LDH) | 0 | 0 | 0 | 0 | – | –
CS(=O)(=O)c1ccc(C2=C(c3ccccc3)C(=O)OC2)cc1 [Rofecoxib] | 0 (0 if Delta VEH and/or Delta cytokine is <10% LDH) | 0 | 0 | 0 | 0 | – | –
CN[C@H]1CC[C@@H](c2ccc(Cl)c(Cl)c2)c2ccccc21 [Sertraline] | 1 (1 if both Delta VEH and Delta cytokine are ≥10% LDH) | 0 | 0 | 0 | 0 | – | –
CC[C@H]1OC(=O)[C@H](C)C(=O)[C@H](C)[C@@H](O[C@@H]2O[C@H](C)C[C@H](N(C)C)[C@H]2O)[C@](C)(OC)C[C@@H](C)C(=O)[C@H](C)[C@H]2N(CCCCn3cnc(-c4cccnc4)c3)C(=O)O[C@]12C [Telithromycin] | 1 (1 if both Delta VEH and Delta cytokine are ≥10% LDH) | −4.2 | −4.0 | −3.1 | – | – | –
N[C@@H]1[C@H]2CN(c3nc4c(cc3F)c(=O)c(C(=O)O)cn4-c3ccc(F)cc3F)C[C@@H]12 [Trovafloxacin] | 0 (0 if Delta VEH and/or Delta cytokine is <10% LDH) | −1.9 | −1.4 | −1.8 | – | – | –
